Assay results published in the supplement of paper PMC6411743.
± gives the standard deviation of the averaged measurements. Some of the results follow.

Legend:
Test in all cases: NP40-soluble protein abundance relative to vehicle (solubility fold change) (ratio); higher = more soluble protein in presence of GTP
AARSD1 = target: T1, AARSD1 (UniProt Q9BTE6)
T1 sequence (whole entry): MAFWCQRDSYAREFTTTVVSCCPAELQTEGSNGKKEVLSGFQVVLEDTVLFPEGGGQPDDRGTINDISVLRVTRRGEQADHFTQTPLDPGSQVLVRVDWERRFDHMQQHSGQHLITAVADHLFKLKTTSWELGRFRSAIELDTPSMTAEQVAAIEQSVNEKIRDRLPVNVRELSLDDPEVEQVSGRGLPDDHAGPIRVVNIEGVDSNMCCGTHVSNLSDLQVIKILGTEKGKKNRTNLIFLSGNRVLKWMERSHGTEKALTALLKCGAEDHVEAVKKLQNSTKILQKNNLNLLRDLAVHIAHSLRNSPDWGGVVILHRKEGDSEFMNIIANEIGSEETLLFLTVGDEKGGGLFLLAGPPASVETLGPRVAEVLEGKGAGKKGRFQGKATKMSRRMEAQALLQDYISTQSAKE
How it was run: (§1)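 Jurkat crude lysate (Dounce-homogenised) was treated with eight concentrations from 0.1 to 10 mM for 10 min at room temperature, then 3 min at 37 °C. It was solubilised with 0.8% NP40 and benzonase (60 min, 4 °C) and ultracentrifuged, and the supernatant was TMT-labelled for LC-MS/MS. Intensities were vsn-normalised, and the value is the fold change against the NP40-processed vehicle per replicate, from three independent experiments.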

CMTM3 = target: T2, CMTM3 (UniProt Q96MX0)
T2 sequence (whole entry): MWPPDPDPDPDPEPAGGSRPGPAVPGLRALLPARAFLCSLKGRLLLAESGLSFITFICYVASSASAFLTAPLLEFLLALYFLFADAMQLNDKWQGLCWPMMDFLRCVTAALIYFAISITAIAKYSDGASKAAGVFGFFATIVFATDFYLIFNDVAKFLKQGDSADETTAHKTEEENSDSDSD
How it was run: as §1

DNAJC1 = target: T3, DNAJC1 (UniProt Q96KC8)
T3 sequence (whole entry): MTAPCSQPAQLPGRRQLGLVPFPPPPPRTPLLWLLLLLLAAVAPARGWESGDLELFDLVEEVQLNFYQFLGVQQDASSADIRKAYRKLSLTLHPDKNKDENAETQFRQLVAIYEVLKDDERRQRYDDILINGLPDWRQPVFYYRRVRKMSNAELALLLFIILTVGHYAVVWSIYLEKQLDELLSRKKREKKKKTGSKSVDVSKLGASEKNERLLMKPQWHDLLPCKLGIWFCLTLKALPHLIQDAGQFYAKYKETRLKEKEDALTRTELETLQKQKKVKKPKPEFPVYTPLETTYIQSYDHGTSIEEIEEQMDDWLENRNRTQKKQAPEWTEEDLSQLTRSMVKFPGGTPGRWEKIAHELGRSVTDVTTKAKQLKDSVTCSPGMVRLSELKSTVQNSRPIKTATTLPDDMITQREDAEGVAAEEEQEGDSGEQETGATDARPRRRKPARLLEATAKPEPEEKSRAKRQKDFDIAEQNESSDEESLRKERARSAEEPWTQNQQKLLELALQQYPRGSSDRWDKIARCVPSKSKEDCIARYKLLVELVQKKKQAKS
How it was run: as §1

DNAJC2 = target: T4, DNAJC2 (UniProt Q99543)
T4 sequence (whole entry): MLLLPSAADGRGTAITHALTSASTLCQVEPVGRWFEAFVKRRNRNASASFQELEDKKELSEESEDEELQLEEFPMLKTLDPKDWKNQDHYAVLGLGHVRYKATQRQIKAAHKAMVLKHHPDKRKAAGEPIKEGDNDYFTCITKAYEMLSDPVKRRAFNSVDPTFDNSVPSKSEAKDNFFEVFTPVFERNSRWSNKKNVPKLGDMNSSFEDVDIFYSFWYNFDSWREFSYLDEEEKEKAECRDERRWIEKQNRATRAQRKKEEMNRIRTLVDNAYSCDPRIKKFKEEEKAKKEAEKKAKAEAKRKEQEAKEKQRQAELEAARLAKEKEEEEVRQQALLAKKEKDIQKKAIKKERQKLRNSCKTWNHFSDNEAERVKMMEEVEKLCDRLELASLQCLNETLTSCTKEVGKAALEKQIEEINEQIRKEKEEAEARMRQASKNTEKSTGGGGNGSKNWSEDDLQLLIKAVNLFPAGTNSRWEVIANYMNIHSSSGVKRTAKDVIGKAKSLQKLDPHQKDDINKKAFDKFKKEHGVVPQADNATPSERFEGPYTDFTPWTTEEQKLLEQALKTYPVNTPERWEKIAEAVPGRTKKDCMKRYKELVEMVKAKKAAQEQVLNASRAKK
How it was run: as §1

EFHD1 = target: T5, EFHD1 (UniProt Q9BUP0)
T5 sequence (whole entry): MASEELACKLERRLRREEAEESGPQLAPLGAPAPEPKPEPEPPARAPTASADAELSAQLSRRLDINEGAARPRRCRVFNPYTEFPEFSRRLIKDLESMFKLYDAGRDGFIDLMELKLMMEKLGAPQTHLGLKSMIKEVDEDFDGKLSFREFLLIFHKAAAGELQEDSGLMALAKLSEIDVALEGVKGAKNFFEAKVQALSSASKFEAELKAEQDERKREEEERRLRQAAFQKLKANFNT
How it was run: as §1

FUNDC2 = target: T6, FUNDC2 (UniProt Q9BWH2)
T6 sequence (whole entry): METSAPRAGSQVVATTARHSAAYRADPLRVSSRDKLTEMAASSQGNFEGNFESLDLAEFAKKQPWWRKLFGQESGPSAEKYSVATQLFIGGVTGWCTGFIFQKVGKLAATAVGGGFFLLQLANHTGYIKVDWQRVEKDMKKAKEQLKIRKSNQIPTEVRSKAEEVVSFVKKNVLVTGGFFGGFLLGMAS
How it was run: as §1

MNT = target: T7, MNT (UniProt Q99583)
T7 sequence (whole entry): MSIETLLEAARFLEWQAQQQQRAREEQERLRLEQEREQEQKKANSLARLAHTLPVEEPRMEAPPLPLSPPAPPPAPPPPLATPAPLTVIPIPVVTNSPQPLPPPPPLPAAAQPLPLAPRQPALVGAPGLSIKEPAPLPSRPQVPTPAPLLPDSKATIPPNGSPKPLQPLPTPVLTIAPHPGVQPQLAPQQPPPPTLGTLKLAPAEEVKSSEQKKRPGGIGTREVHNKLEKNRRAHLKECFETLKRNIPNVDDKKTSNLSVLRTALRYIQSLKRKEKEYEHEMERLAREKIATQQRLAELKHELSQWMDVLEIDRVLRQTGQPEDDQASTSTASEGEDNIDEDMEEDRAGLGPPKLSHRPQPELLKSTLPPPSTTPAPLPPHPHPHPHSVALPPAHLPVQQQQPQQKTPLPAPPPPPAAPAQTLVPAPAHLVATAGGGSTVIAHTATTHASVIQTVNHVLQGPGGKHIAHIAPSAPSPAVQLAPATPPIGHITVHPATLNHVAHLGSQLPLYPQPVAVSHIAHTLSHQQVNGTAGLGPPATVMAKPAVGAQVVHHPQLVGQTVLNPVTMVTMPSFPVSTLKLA
How it was run: as §1

**Q.** With `Nc1nc2c(ncn2[C@@H]2O[C@H](COP(=O)(O)OP(=O)(O)OP(=O)(O)O)[C@@H](O)[C@H]2O)c(=O)[nH]1` [guanosine triphosphate] as the molecule, how does the NP40-soluble protein abundance (AARSD1; concentration: 0.1mM) read?
**A.** 0.992 ± 0.041

**Q.** And the NP40-soluble protein abundance (AARSD1; concentration: 0.5mM)?
**A.** 0.985 ± 0.029

**Q.** And the NP40-soluble protein abundance (AARSD1; concentration: 1mM)?
**A.** 0.942 ± 0.035

**Q.** What about the NP40-soluble protein abundance (AARSD1; concentration: 2mM) of the same molecule?
**A.** 0.924 ± 0.032

**Q.** What about the NP40-soluble protein abundance (AARSD1; concentration: 4mM) of the same molecule?
**A.** 0.927 ± 0.053

**Q.** And the NP40-soluble protein abundance (AARSD1; concentration: 6mM)?
**A.** 0.9091 ± 0.0021

**Q.** What about the NP40-soluble protein abundance (AARSD1; concentration: 8mM) of the same molecule?
**A.** 0.902 ± 0.048

**Q.** And the NP40-soluble protein abundance (AARSD1; concentration: 10mM)?
**A.** 0.904 ± 0.054

**Q.** What about the NP40-soluble protein abundance (CMTM3; concentration: 0.1mM) of the same molecule?
**A.** 1.02 ± 0.073

**Q.** What about the NP40-soluble protein abundance (CMTM3; concentration: 0.5mM) of the same molecule?
**A.** 0.918 ± 0.049

**Q.** And the NP40-soluble protein abundance (CMTM3; concentration: 1mM)?
**A.** 0.7918 ± 0.0036

**Q.** What about the NP40-soluble protein abundance (CMTM3; concentration: 2mM) of the same molecule?
**A.** 0.846 ± 0.034

**Q.** What about the NP40-soluble protein abundance (CMTM3; concentration: 4mM) of the same molecule?
**A.** 0.791 ± 0.016

**Q.** And the NP40-soluble protein abundance (CMTM3; concentration: 6mM)?
**A.** 0.694 ± 0.024

**Q.** And the NP40-soluble protein abundance (CMTM3; concentration: 8mM)?
**A.** 0.715 ± 0.099

**Q.** What about the NP40-soluble protein abundance (CMTM3; concentration: 10mM) of the same molecule?
**A.** 0.798 ± 0.042

**Q.** What about the NP40-soluble protein abundance (DNAJC1; concentration: 0.1mM) of the same molecule?
**A.** 0.999 ± 0.067

**Q.** What about the NP40-soluble protein abundance (DNAJC1; concentration: 0.5mM) of the same molecule?
**A.** 0.972 ± 0.073

**Q.** What about the NP40-soluble protein abundance (DNAJC1; concentration: 1mM) of the same molecule?
**A.** 0.981 ± 0.078

**Q.** And the NP40-soluble protein abundance (DNAJC1; concentration: 2mM)?
**A.** 0.955 ± 0.11

**Q.** And the NP40-soluble protein abundance (DNAJC1; concentration: 4mM)?
**A.** 0.957 ± 0.12

**Q.** What about the NP40-soluble protein abundance (DNAJC1; concentration: 6mM) of the same molecule?
**A.** 0.94 ± 0.052

**Q.** What about the NP40-soluble protein abundance (DNAJC1; concentration: 8mM) of the same molecule?
**A.** 0.976 ± 0.019

**Q.** And the NP40-soluble protein abundance (DNAJC1; concentration: 10mM)?
**A.** 0.953 ± 0.093

**Q.** And the NP40-soluble protein abundance (DNAJC2; concentration: 0.1mM)?
**A.** 0.997 ± 0.099

**Q.** And the NP40-soluble protein abundance (DNAJC2; concentration: 0.5mM)?
**A.** 0.949 ± 0.074

**Q.** And the NP40-soluble protein abundance (DNAJC2; concentration: 1mM)?
**A.** 0.988 ± 0.092

**Q.** What about the NP40-soluble protein abundance (DNAJC2; concentration: 2mM) of the same molecule?
**A.** 0.942 ± 0.09

**Q.** And the NP40-soluble protein abundance (DNAJC2; concentration: 4mM)?
**A.** 0.925 ± 0.098

**Q.** And the NP40-soluble protein abundance (DNAJC2; concentration: 6mM)?
**A.** 0.923 ± 0.077

**Q.** What about the NP40-soluble protein abundance (DNAJC2; concentration: 8mM) of the same molecule?
**A.** 0.946 ± 0.061

**Q.** And the NP40-soluble protein abundance (DNAJC2; concentration: 10mM)?
**A.** 0.934 ± 0.086

**Q.** What about the NP40-soluble protein abundance (EFHD1; concentration: 0.1mM) of the same molecule?
**A.** 1.03 ± 0.037

**Q.** What about the NP40-soluble protein abundance (EFHD1; concentration: 0.5mM) of the same molecule?
**A.** 0.924 ± 0.022

**Q.** What about the NP40-soluble protein abundance (EFHD1; concentration: 1mM) of the same molecule?
**A.** 0.989 ± 0.081

**Q.** What about the NP40-soluble protein abundance (EFHD1; concentration: 2mM) of the same molecule?
**A.** 1.04 ± 0.034

**Q.** What about the NP40-soluble protein abundance (EFHD1; concentration: 4mM) of the same molecule?
**A.** 1.09 ± 0.23

**Q.** And the NP40-soluble protein abundance (EFHD1; concentration: 6mM)?
**A.** 1.03 ± 0.13

**Q.** What about the NP40-soluble protein abundance (EFHD1; concentration: 8mM) of the same molecule?
**A.** 0.929 ± 0.17

**Q.** And the NP40-soluble protein abundance (EFHD1; concentration: 10mM)?
**A.** 1.11 ± 0.076

**Q.** What about the NP40-soluble protein abundance (FUNDC2; concentration: 0.1mM) of the same molecule?
**A.** 0.946 ± 0.063

**Q.** And the NP40-soluble protein abundance (FUNDC2; concentration: 0.5mM)?
**A.** 0.868 ± 0.038

**Q.** And the NP40-soluble protein abundance (FUNDC2; concentration: 1mM)?
**A.** 0.903 ± 0.049

**Q.** What about the NP40-soluble protein abundance (FUNDC2; concentration: 2mM) of the same molecule?
**A.** 0.879 ± 0.084

**Q.** What about the NP40-soluble protein abundance (FUNDC2; concentration: 4mM) of the same molecule?
**A.** 0.853 ± 0.085

**Q.** And the NP40-soluble protein abundance (FUNDC2; concentration: 6mM)?
**A.** 0.868 ± 0.088

**Q.** And the NP40-soluble protein abundance (FUNDC2; concentration: 8mM)?
**A.** 0.844 ± 0.072

**Q.** What about the NP40-soluble protein abundance (FUNDC2; concentration: 10mM) of the same molecule?
**A.** 0.832 ± 0.088

**Q.** And the NP40-soluble protein abundance (MNT; concentration: 0.1mM)?
**A.** 0.955 ± 0.016

**Q.** And the NP40-soluble protein abundance (MNT; concentration: 0.5mM)?
**A.** 0.954 ± 0.091

**Q.** What about the NP40-soluble protein abundance (MNT; concentration: 1mM) of the same molecule?
**A.** 0.951 ± 0.065

**Q.** What about the NP40-soluble protein abundance (MNT; concentration: 2mM) of the same molecule?
**A.** 0.931 ± 0.088
